{"source": "PubChem BioAssay AID624329", "about": "(National Center for Advancing Translational Sciences (NCATS), 2012)", "note": "This list was built around the results that the source calls inconclusive (neither active nor inactive); the mix of calls is not that of the screen. A potency beside an inconclusive call is a rough fit, not a confirmed value. Calls of active or inactive are those of the source. Calls come from the whole dose curve; as a rule, active = well fitted curve in the direction sought with a large enough effect; inconclusive = small, poorly fitted or top-dose-only effect; inactive = flat fitted curve, though single readings scatter."}
{"test": "Quantitative high throughput screen for delayed death inhibitors of the malarial parasite plastid: Hit Validation with 3D7 at 48 hr using Flow Cytometry", "details": "P. falciparum 3D7 growth, flow cytometry SYBR/MitoTracker; fraction of growth remaining: at 50 µM (top of the series)", "source_text": "The goal of this screen is to discover new antimalarial compounds that act by inhibiting the development of the apicoplast organelle in the malarial parasite Plasmodium falciparum. Some antibiotics, such as azithromycin and tetracycline, are known to interfere with the apicoplast translational machinery, and have a potent antimalarial effect. […] We developed a cell-based quantitative high throughput screen that leverages this \"delayed death\" phenotype to enrich for compounds that target the apicoplast. To detect small molecules that cause the delayed death phenotype, erythrocytes infected with firefly luciferase-expressing parasites were incubated with compounds for either one or two generations, corresponding to 48 and 96 hours, respectively. Growth inhibition was detected by a decrease in luciferase activity. Compounds that inhibited parasite growth in the second generation at least five-fold more potently than in the first generation were defined as delayed death inducing. These compounds were selected for confirmatory screening using a flow cytometry based assay. This hit validation assay used the 3D7 cell line and measured at 48 hours. NIH Molecular Libraries Probe Production Network [MLPCN] NIH Chemical Genomics Center [NCGC] MLPCN Grant: R21 NS059500 Assay Provider: David Fidock and Eric Ekland, Columbia University\nTest compounds were diluted in 20 microliters of complete media (RPMI 1640 with 0.5% w/v Albumax (GIBCO), 24 mM sodium bicarbonate (Sigma) and 10 ug/mL gentamycin (Gibco)) in clear 384-well plates (Greiner). All liquid handling was conducted using a Bio Tek Precision 2000 pipetting system. Twenty microliters of infected erythrocytes, 0.2% parasitemia (for 48 hour time points) or 0.1% parasitemia (for 96 hour time points) were added to the compound dilutions (1% hematocrit, final concentration; 40 microliters, total culture volume). The assay plates were incubated for 48 hours, or 96 hours, at 37 masculine C in a humidified chamber (Billups- Rothenberg, Del Mar, CA, USA), gassed with 5%CO2/5%O2/ 90%N2. After one generation (48 hours), 5 microliters of culture were harvested and transferred to a second 384 well plate for fluorescent staining. Samples were stained with 30 microliters of 2 x SYBR Green I (Invitrogen) and 150nM MitoTracker Deep Red (Invitrogen) diluted in 0.9% NaCl, 0.2% dextrose (Baxter) supplemented with 2.5% Fetal Calf Serum (Gibco) (saline/FCS). Mature erythrocytes lack nuclei and mitochondria, therefore only parasitized erythrocytes retain the SYBR Green I and MitoTracker Deep Red. After 30 minutes at 37 masculine C, the stained cells were diluted in an additional 60 microliters of saline/FCS. The samples were harvested directly from the 384 well plate using a Hypercyt High Capacity Flow Platform (Intellicyt) paired with a C6 Flow Cytometer (Accuri). The flow cytometry files were analyzed using FlowJo software (FlowJo)."}
{"molecule": "COc1ccc(C(=O)N2CCN(S(=O)(=O)c3ccc(C)cc3C)CC2)cc1OC", "fraction of growth remaining": "inconclusive: 0.431"}
{"molecule": "CN(C)S(=O)(=O)c1cc(NC(=O)C2=COCCO2)ccc1Cl", "fraction of growth remaining": "inconclusive: 0.403"}
{"molecule": "CCOc1ccc(C(=O)Nc2ccc(N3CCN(C)CC3)cc2)cc1", "fraction of growth remaining": "inconclusive: 0.466"}
{"molecule": "O=C(CNC(=O)C1CCCCC1)OC(C(=O)c1ccccc1)c1ccccc1", "note": "(stereo not given)", "Potency": "inactive"}
{"molecule": "O=C(Nc1ccccc1N1CCOCC1)c1cccc(S(=O)(=O)N2CCOCC2)c1", "Potency": "inconclusive: 39.3 µM [rising, single point]"}
{"molecule": "c1csc(CNc2ncnc3nc[nH]c23)c1", "Potency": "inactive"}
{"molecule": "COc1cc(C(C)=O)ccc1OCC(O)CN1CCN(c2cc(C)cc(C)c2)CC1", "note": "(stereo not given)", "fraction of growth remaining": "inconclusive: 0.586"}
{"molecule": "CN(C)c1ccc(CN(C(=O)c2ccccc2Br)C2CCS(=O)(=O)C2)cc1", "note": "(stereo not given)", "Potency": "inconclusive: 33.2 µM [rising, single point]"}
{"molecule": "CC1=Nc2cc(C(=O)N3CCCC3)ccc2Sc2ccc(C)cc21", "fraction of growth remaining": "active: 0.151"}
{"molecule": "CCC(=O)OC1C(N(C)C)CC(C)O[C@H]1O[C@H]1[C@H](C)[C@@H](O[C@H]2CC(OC)[C@@H](O)C(C)O2)[C@H](C)C(=O)O[C@@H](CC)[C@](C)(O)[C@@H](O)[C@H](C)C(=O)[C@@H](C)C[C@]1(C)O", "note": "(stereo not given in full)", "Potency": "inactive"}
{"molecule": "CCN(CC)C(=O)COc1coc(CN2CCN(c3cccc(Cl)c3)CC2)cc1=O", "fraction of growth remaining": "inconclusive: 0.529"}
{"molecule": "Brc1cccc(OCCCCN2CCCCC2)c1", "Potency": "inconclusive: 34.9 µM [rising, single point]"}
{"molecule": "Cc1sc2nc[nH]c(=O)c2c1-c1ccc(Cl)cc1", "Potency": "inconclusive: 29.6 µM [rising, single point]"}
{"molecule": "COc1ccc(Nc2nnc(-c3ccc(C)cc3)c3ccccc23)cc1C(=O)N1CCCCC1", "Potency": "inconclusive: 47.4 µM [rising, single point]"}
{"molecule": "COc1ccc(CNC(=O)C2CCC(CNS(=O)(=O)c3cccc4cccnc34)CC2)cc1", "note": "(stereo not given)", "fraction of growth remaining": "inconclusive: 0.356"}
{"molecule": "CC(C)C(=O)NCCSc1c[nH]c2ccccc12", "Potency": "inconclusive: 47.6 µM [rising, single point]"}
{"molecule": "COCCNC(=O)c1cccc(OC2CCN(Cc3cccc(SC)c3)CC2)c1", "fraction of growth remaining": "inconclusive: 0.793"}
{"molecule": "O=C(c1ccc([N+](=O)[O-])cc1)n1nc(-c2ccccc2)nc1NCc1ccc(F)cc1", "fraction of growth remaining": "inconclusive: 0.488"}
{"molecule": "CCOC(=O)c1ccc2c(c1)n(CC)c(/C=C/N(C)c1ccccc1)[n+]2CC", "Potency": "active: 1.52 µM"}
{"molecule": "CC(=O)NC[C@@H]1CN(c2ccc(N3CCOCC3)c(F)c2)C(=O)O1", "Potency": "inactive"}
